# Percent effect of library compounds

Mtb glucose medium: 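Growth of Mycobacterium tuberculosis over 3 days (7H9 medium with glucose and tyloxapol); the read-out is not stated. Tested at 50 µM. The record gives no direction; compounds that gave an IC50 in retests scored well above the rest, so higher reads as more growth inhibition. About 69,000 compounds were tested under these conditions; 1.1% (about 760) showed 50% or more at least once.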
Mtb cholesterol medium: 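Whole-cell growth test on Mycobacterium tuberculosis, read after 4 days in a medium based on cholesterol and the lipid DPPC; the read-out is not stated. Compounds at 50 µM. Higher reads as more growth inhibition (inferred: compounds with an IC50 in retests scored well above the rest). About 69,000 compounds were tested under these conditions; 0.54% (about 370) showed 50% or more at least once.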

Values are the deposited “Percent Effect”, in %. The record does not define 0% and 100%; most values in the screen are far below 50% and negative numbers occur (in some assays of this library far below -100). This is an unselected part of the compounds tested. Two or more numbers in one place are separate tests of the same structure; such repeats can differ widely.

CC(NC(=O)NCCn1ccnc1)c1nncn1C (centres unmarked) read Mtb glucose medium: -3.244%; Mtb cholesterol medium: 9.06%. With CCOc1ccccc1CN(CC)Cc1ccc(S(C)(=O)=O)cc1 the screen gave Mtb glucose medium: 0.3639%; Mtb cholesterol medium: -3.548%. CSCC[C@H](NC(=O)Cn1ccc2c(Cl)cccc21)C(=O)O gave Mtb glucose medium: -34.55%; Mtb cholesterol medium: -21.89%. CNC(=O)c1cc(-c2ccccc2)nc2ncnn12 read Mtb glucose medium: 31.26%; Mtb cholesterol medium: -4.774%. CCn1cnnc1C1CCN(C(=O)c2c(C)oc(C)c2C)CC1 read Mtb glucose medium: 13.01%; Mtb cholesterol medium: -4.401%. Result for Cc1cccc(C(=O)NC(C(=O)NCc2ccc(O)nc2)C(C)C)c1 (centres unmarked) was Mtb glucose medium: 29.12%; Mtb cholesterol medium: -7.551%.

Result for COC(=O)c1cc(OCC2CCC2)cc(C(=O)N[C@@H]2CCCNC2)c1 was Mtb glucose medium: 47.09%; Mtb cholesterol medium: 30.74%. Result for O=C(O)C(F)(F)F.O=C(O)C(F)(F)F.O=C(O)C(F)(F)F.[H][C@@]12CN(Cc3cccnc3)C[C@]1([H])[C@H](OC)CCN2Cc1c(C)noc1C was Mtb glucose medium: 6.697%; Mtb cholesterol medium: -6.64%. For Cc1nc2c(c(N(C)C)n1)CCN(C(=O)c1ccc(N)nc1)C2 the result was Mtb glucose medium: 20.9%; Mtb cholesterol medium: -0.997%. With O=C(Cc1csc(-c2ccco2)n1)N1CCCC1Cn1cccn1 (centres unmarked) the screen gave Mtb glucose medium: 8.236%; Mtb cholesterol medium: 22.71%. Cl.Cn1cccc1C(=O)N1CCc2c(CNS(C)(=O)=O)cncc2C1 read Mtb glucose medium: -5.409%; Mtb cholesterol medium: -21.39%. With [H][C@@]12CCN(Cc3ccncc3)C[C@]1([H])[C@@H](CNc1ncccn1)OC2 the screen gave Mtb glucose medium: -6.591%; Mtb cholesterol medium: -36.28%.

For [H][C@]12CC[C@]([H])(CN(Cc3cccnc3)C1)N(C(=O)c1cc(C(C)C)on1)C2 the result was Mtb glucose medium: 20.79%; Mtb cholesterol medium: 5.567%. With CC(C)c1cccc(NC(=O)Cn2c(=O)n(C)c(=O)c3sccc32)c1 the screen gave Mtb glucose medium: -14.78%; Mtb cholesterol medium: -26.56%. For Cn1cccc1C(O)CNS(=O)(=O)c1ccccc1Br (centres unmarked) the result was Mtb glucose medium: 6.942% and 5.174%; Mtb cholesterol medium: -6.145%. Result for O=C(O)C(F)(F)F.O=C(O)C(F)(F)F.O=C(O)C(F)(F)F.[H][C@@]12CCCO[C@]1([H])[C@@H](Oc1ncccc1F)CN2Cc1cnn(C)c1 was Mtb glucose medium: 0.07031%; Mtb cholesterol medium: -19.58%. With Cc1cc(C)c(S(N)(=O)=O)cc1C(=O)NCC1Cc2ccccc2O1 (centres unmarked) the screen gave Mtb glucose medium: -18.76%; Mtb cholesterol medium: 1.845% and -4.93%. Result for O=C(O)C(F)(F)F.O=C(O)C(F)(F)F.O=C(c1n[nH]c2c1CN(C1CCOC1)CC2)N1CCOCC1 (centres unmarked) was Mtb glucose medium: 1.583%; Mtb cholesterol medium: -5.084%.

For Cc1nc(C(C)Nc2nc3c(s2)c(C)nn3C)n[nH]1 (centres unmarked) the result was Mtb glucose medium: -28.25% and -10.12%; Mtb cholesterol medium: -6.707%. Result for Cc1ccc(C(=O)N2CCN(CC(C)O)CC2)cc1S(C)(=O)=O (centres unmarked) was Mtb glucose medium: -16.25%; Mtb cholesterol medium: 0.6622%. Result for CCCC(Nc1nc(COCC)nc2c1CCNCC2)c1nccn1C (centres unmarked) was Mtb glucose medium: 21.76%; Mtb cholesterol medium: -0.556%. Cc1nc[nH]c1CNCc1cccnc1N(C)C1CCCCC1 read Mtb glucose medium: 22.11%; Mtb cholesterol medium: -0.0342%. With Cc1nnn2c1COCC(CNC(=O)c1ccnnc1)C2 (centres unmarked) the screen gave Mtb glucose medium: -24.98% and 2.395%; Mtb cholesterol medium: -12.92%. N#Cc1ccc(CNc2ncc(C#N)cc2Cl)cc1 gave Mtb glucose medium: 2.284%; Mtb cholesterol medium: -27.03%.

With Cc1cccc(-c2cc(C(=O)O)sn2)c1 the screen gave Mtb glucose medium: 25.25% and 1.61%; Mtb cholesterol medium: 16.63%.

Measurements from “University of Dundee, Small-Polar-MMV Screening Library” (2021), ChEMBL document CHEMBL3988442.